## Primary screen of a compound library

Sequences of proteins named here, by UniProt entry; tags and fusion partners are left off. Residues count along the entry.
UniProt P9WFT3, whole entry: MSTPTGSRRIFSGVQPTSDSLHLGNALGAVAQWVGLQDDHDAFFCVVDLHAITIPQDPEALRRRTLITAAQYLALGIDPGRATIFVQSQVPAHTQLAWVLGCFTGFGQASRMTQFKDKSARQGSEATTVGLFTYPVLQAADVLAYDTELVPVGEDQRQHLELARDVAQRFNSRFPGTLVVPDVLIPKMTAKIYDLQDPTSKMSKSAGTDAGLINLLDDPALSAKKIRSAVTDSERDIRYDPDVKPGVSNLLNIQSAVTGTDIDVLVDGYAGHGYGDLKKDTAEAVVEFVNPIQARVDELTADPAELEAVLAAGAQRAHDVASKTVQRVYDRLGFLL
UniProt I6X8D2, whole entry: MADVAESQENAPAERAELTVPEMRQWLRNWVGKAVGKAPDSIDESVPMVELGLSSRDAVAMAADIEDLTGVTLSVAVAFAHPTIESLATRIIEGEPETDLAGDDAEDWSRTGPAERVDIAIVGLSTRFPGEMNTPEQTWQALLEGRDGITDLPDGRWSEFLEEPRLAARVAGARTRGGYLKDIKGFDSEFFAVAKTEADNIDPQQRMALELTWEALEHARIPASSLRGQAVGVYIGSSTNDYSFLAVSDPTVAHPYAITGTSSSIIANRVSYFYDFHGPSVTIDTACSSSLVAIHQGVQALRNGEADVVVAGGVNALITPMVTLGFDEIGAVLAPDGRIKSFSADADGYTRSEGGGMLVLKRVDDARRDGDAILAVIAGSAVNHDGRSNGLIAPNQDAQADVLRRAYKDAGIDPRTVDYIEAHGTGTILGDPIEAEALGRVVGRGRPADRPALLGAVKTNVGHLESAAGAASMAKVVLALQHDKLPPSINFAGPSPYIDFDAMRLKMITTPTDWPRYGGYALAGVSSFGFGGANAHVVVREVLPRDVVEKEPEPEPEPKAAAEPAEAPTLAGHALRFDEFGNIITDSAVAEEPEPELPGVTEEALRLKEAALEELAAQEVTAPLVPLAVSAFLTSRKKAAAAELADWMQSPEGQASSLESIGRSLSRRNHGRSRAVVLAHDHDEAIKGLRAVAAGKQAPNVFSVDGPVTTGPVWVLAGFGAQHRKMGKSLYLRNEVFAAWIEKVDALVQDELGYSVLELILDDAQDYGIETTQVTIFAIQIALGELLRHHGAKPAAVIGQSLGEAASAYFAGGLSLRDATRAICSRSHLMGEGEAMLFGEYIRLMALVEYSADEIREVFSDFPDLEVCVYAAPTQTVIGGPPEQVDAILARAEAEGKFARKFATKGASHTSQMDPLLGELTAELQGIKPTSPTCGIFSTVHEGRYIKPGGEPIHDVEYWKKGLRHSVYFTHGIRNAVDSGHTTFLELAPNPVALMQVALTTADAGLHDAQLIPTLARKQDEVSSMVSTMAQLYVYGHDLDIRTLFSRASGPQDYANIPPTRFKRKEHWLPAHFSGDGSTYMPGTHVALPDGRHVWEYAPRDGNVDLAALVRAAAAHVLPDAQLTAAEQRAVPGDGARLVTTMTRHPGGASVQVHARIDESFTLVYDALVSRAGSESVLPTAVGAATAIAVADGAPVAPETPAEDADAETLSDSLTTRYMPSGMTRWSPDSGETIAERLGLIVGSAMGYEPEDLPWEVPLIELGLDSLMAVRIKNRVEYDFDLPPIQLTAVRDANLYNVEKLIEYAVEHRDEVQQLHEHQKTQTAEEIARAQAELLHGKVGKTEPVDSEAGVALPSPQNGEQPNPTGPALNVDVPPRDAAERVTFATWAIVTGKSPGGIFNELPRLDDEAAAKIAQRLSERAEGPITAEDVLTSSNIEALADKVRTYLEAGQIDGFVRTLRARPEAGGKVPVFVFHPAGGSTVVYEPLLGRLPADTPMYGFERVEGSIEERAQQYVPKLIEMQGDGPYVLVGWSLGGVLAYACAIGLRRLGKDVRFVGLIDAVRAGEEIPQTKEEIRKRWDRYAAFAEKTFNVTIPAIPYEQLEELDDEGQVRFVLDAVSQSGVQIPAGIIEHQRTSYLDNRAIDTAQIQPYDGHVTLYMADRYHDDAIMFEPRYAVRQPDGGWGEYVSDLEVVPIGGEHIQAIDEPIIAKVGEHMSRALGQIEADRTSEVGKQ
UniProt A4I591, 1-473: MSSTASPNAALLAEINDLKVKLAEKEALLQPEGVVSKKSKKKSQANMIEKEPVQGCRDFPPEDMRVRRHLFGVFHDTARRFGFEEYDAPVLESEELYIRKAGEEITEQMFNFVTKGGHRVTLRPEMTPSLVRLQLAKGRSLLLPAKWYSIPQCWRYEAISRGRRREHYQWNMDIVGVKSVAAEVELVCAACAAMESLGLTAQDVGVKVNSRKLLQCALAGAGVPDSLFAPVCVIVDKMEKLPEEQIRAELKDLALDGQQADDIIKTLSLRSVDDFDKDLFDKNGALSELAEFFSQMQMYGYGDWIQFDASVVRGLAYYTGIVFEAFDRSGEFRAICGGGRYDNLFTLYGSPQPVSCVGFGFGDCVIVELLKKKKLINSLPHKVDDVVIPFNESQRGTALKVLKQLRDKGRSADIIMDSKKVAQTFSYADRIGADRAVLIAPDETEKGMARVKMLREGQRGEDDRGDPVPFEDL
UniProt Q8IDJ8, 1-583: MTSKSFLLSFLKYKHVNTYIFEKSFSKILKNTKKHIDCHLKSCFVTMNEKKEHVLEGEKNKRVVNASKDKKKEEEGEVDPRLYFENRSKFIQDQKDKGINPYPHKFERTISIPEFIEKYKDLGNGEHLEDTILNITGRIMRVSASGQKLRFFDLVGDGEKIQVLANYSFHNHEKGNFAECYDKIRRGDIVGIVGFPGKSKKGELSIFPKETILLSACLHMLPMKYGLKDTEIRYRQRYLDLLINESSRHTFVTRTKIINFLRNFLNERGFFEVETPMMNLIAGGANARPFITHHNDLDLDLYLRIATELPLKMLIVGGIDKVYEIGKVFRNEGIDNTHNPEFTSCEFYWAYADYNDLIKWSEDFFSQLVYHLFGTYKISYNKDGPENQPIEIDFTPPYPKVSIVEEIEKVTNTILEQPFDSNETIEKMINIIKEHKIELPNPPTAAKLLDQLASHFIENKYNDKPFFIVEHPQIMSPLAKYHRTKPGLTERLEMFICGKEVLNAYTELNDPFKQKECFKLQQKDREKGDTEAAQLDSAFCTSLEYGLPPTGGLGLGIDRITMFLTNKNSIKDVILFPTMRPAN

Data taken from ChEMBL document CHEMBL3988442, “University of Dundee, Small-Polar-MMV Screening Library” (2021).

Results are given as percent effect. How 0% and 100% were set is not recorded. Most values in the screen are low, and negative values occur. This is an unselected part of the compounds tested. A dash means the value is not listed here; it may have been measured.

A: 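Enzyme assay of tryptophanyl-tRNA synthetase; the read-out is not stated. Target: Tryptophan-tRNA ligase, Mycobacterium tuberculosis (UniProt P9WFT3). Tested at 10 µM. Direction is not recorded; retested compounds ran higher, which suggests that high means inhibition. Of about 65,000 compounds tested this way, about 64 (0.098%) reached 50% or more in at least one test.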
B: 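Enzyme assay of the thioesterase domain of polyketide synthase 13; the read-out is not stated. Target: Polyketide synthase Pks13, Mycobacterium tuberculosis (UniProt I6X8D2). Concentration: 30 µM. The record gives no direction; the compounds picked for IC50 retests had high values, so higher reads as stronger inhibition. About 67,000 compounds were tested under these conditions; 0.46% (about 300) showed 50% or more at least once.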
C: 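Enzyme assay of histidyl-tRNA synthetase; the read-out is not stated. Target: Histidine-tRNA ligase, Leishmania infantum (UniProt A4I591). Concentration: 30 µM. The record gives no direction; compounds that gave an IC50 in retests scored well above the rest, so higher reads as stronger inhibition. The assay is labelled LdHisRS but filed under L. infantum. Of about 69,000 compounds tested this way, about 410 (0.6%) reached 50% or more in at least one test.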
D: 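Enzyme assay of the cytosolic lysyl-tRNA synthetase in 384-well plates, read by luminescence. Target: Lysine-tRNA ligase, Plasmodium falciparum 3D7 (UniProt Q8IDJ8). Compounds at 30 µM. Higher reads as stronger inhibition, judged from the few compounds that gave an IC50. About 69,000 compounds were tested under these conditions; 0.071% (about 49) showed 50% or more at least once.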

compound	A	B	C	D
CCNc1ncc(C(=O)N2CCOC(CCCc3ccccc3)C2)cn1 (stereo not given)	0.9372%	-186.4%	15.62%	4.918%
CCn1cc(CN2CCCC(CO)(CCc3ccccc3)C2)c(C)n1 (stereo not given)	1.844%	-21.74%	15.09%	-1.123%
Cc1noc(C)c1CN1C[C@@H]2C[C@H](C(=O)NCC3CC3)N(C)[C@@H]2C1	-1.327%	-20.22%	28.44%	4%
CCOc1ccc(C(=O)N2CCCC2c2c(C)nn(C)c2Cl)cn1 (stereo not given)	-4.172%	7.298%	10.71%	-0.143%
CS(=O)(=O)CCC(=O)Nc1cnn(-c2ccccc2Cl)c1	-4.568%	1.532%	21.54%	0.4733%
Cc1c(NC(=O)CN2CCN(C3CCCC3)C(=O)C2)cnn1C	3.851%	-2.717%	13.99%	1.767%
CO[C@@H]1CCN(Cc2cnn(C)c2)[C@@H]2CN(Cc3ccco3)C[C@@H]21	7.437%	-32.98%	9.709%	0.8746%
Cc1cc(C(=O)N2CCCC(c3nc(C)no3)C2)on1 (stereo not given)	2.346%	28.01%	5.618%	5.345%
CCn1cc(S(=O)(=O)N2CCCCCC2c2cc(C)on2)cn1 (stereo not given)	3.03%	-3.358%	5.714%	-0.07709%
O=C(CCC1CCCO1)NCCCC(=O)Nc1ccc(Cl)cc1 (stereo not given)	3.042%	-2.607%	18.68%	0.2746%
CO[C@H]1CN(S(=O)(=O)c2ccccc2F)C[C@@]12CCCO2	-0.7026%	7.975%	12.77%	0.9916%
CC(C)Cc1cc(C(=O)NC(C)C)[nH]n1	1.908%	-6.04%	4.494%	6.943%
Cc1nc2c(c(NC3CC3)n1)CCN(C(=O)C1(C#N)CC1)CC2	-10.55%	-14.58%	12%	3.092%
COc1cc(N2CCc3ncnc(-c4ccoc4)c3CC2)ncn1	-2.196%	-16.93%	14%	0.2857%
CCN(C(=O)CSc1ccc(C(F)(F)F)cn1)C1CC1	0.7936%	-25.52%	23.29%	5.541%
CSc1ccc(CNC(=O)C2CC(=O)N(C(C)(C)C)C2)cc1 (stereo not given)	0.3018%	-15.48%	12.9%	0.4922%
CS(=O)(=O)c1cc(Cl)cnc1C1CCCN(C(=O)C2CCOCC2)C1 (stereo not given)	-1.302%	11.24%	-24.46%	-1.865%
O=C(c1ccc(-n2ccnc2)nc1)N1CCCC(n2cccn2)C1 (stereo not given)	-1.101%	-0.2821%	15.2%	-1.322%
CSCc1noc(CN2CCCCC2CCc2ccc(O)cc2)n1 (stereo not given)	-2.094%	-12.85%	11.5%	8.654%
CCS(=O)(=O)CCNC(=O)c1ccc(-c2ccc(C)cc2)cc1F	-9.362%	8.668%	12.26%	3.458%
CC(C)(C)c1nc(CN2CCC(N3CCCCC3)CC2)no1	-0.5435%	-11.72%	14.29%	7.57%
CNC(=O)Cc1noc(Cc2ccc3c(c2)CCCC3)n1	10.34%	4.485%	20.51%	-3.557%
Cc1cccnc1CN1CCN(c2noc(-c3ccccc3)n2)CC1	-8.583%	-13.73%	2.151%	1.411%
Cc1nc(N(C)C/C=C/c2ccccc2)c2cnn(C)c2n1	-2.632%	-32.73%	13.33%	-2.355%
Cc1ccc(-c2cc(N)c(=O)n(C(C)C(=O)NC(C)C)n2)o1 (stereo not given)	-6.662%	-2.083%	9.396%	3.046%
CCOC1CCN(CCc2nc(-c3cccc(Cl)c3)no2)CC1	-0.6731%	8.676%	-3.448%	-5.159%
NS(=O)(=O)CCN1CCN(c2ccccc2O)CC1	-1.083%	-24.06%	15.71%	4.117%
CCCn1nc2c(cc1=O)CN(Cc1cc(C)no1)CC2	3.229%	-23.13%	69.7%	3.323%
Cc1ccc(NCCCNC(=O)C2CC3(CCNCC3)CN2C)nc1 (stereo not given)	-0.5696%	-25.63%	13.22%	11.47%
CC(=O)N1CCCC(Cc2cnc(-c3c(C)nn(C)c3C)cn2)C1 (stereo not given)	0.07807%	2.345%	11.35%	-1.297%
Cc1csc(N2CCN(C(=O)c3cc(C4CC4)[nH]n3)CC2)n1	1.349%	-2.188%	7.895%	11%
CCc1cn[nH]c1C1CCCN(C(=O)c2cc(C(C)C)on2)C1 (stereo not given)	7.004%	-13.78%	21.92%	2.273%
CCNc1ncc(C(=O)NCCc2csc(-c3ncccn3)n2)cn1	6.168%	-10.17%	7.843%	-2.772%
Cn1cc(C2CCCN2C(=O)CCCOc2ccc(F)cc2F)cn1 (stereo not given)	0.7081%	-37.68%	12.36%	3.354%
CC(NC(=O)NCCC1=CCCCC1)c1nncn1C (stereo not given)	-2.151%	-23.18%	8.85%	-2.788%
CC1=N[C@@]2(CC[C@@H]3CN(Cc4ccccc4F)C[C@@H]32)C(=O)N1C	-1.161%	-17.72%	22.94%	0.4498%
COCC1c2c(cnn2C)CCN1Cc1ccc(C)o1 (stereo not given)	-0.5533%	2.891%	15.38%	3.838%
CC(C)c1noc(C2CC(=O)N(CCN(C)C)C2)n1 (stereo not given)	-1.112%	-28.1%	18.18%	0.6392%
Cn1nc(C2CCN(C(=O)CN3CCCCC3)CC2)c2cccnc21	-	-	19.79%	2.715%
O=C(CCc1ccc(-n2cnnn2)cc1)Nc1ccncc1	3.605%	22.47%	17.39%	-5.432%
CC(C)CN1Cc2c(C(=O)N(C)C)ncn2-c2ccccc2S1(=O)=O	-0.2615%	-24.29%	10.53%	8.301%
C1CCC(c2nnc3sc(C4CCCO4)nn23)C1 (stereo not given)	12.06%	-	-2.797%	-4.075%
CO[C@H]1CNC[C@@H]1NC(=O)CCc1nc(-c2ccccc2)no1	8.781%	-44.78%	18.99%	4.806%
CC(C)NCc1cccnc1N1CCN(c2ccccn2)CC1	4.868%	-20.01%	13.98%	3.787%
CC(C)(C)c1cn(C2CCN(C3CCSC3)CC2)nn1 (stereo not given)	-5.333%	-15.75%	9.639%	1.367%
NS(=O)(=O)CCNC(=O)c1ccc(OCc2ccccc2)nc1	0.3812%	6.949%	13.39%	2.466%
Cc1nn(C)c(C)c1CCC(=O)N1CCCOC(Cn2cccn2)C1 (stereo not given)	0.1142%	-0.2242%	18.75%	0.9027%
Cc1nc(-c2ccco2)ccc1C(=O)NCCN1CCN(C)CC1	1.285%	-15.87%	24.69%	4.633%
c1cn(Cc2nnc(C3CCN(C4CCOCC4)CC3)n2C2CC2)cn1	-2.842%	-8.133%	10.68%	-6.162%
COc1ccc(NC(=O)c2cccc(CN3CCCC3C)c2)cc1OC (stereo not given)	-0.4656%	-27.93%	17.95%	4.912%
Cn1ncc2c1NC(=O)CC2c1ccc(Cl)cc1Cl (stereo not given)	-7.945%	-43.83%	11.43%	9.507%
O=S(=O)(c1c(N2CCCCC2)ccc2nonc12)N1CCCCC1	0.311%	51.69%	7.609%	4.228%
Cn1c(CN2CC[C@](C)(O)C(C)(C)C2)cc2ccccc21	-2.067%	-2.882%	6.667%	11.48%
CC(c1ccccc1)N(C)C(=O)Cn1cc(NC(=O)C(C)(C)C)cn1 (stereo not given)	-0.9497%	-4.276%	9.91%	5.231%
CN(Cc1c(F)cccc1Cl)C(=O)Cn1cnc(C#N)n1	-2.824%	-35.27%	40.96%	5.352%
CC(=O)N1CCCC(Cc2cncc(Br)c2)C1 (stereo not given)	-	9.761%	16.49%	2.944%
CN1CCCCC1c1ncc2c(n1)CCN(Cc1ccc(F)cc1)C2 (stereo not given)	-	10.5%	44%	1.331%
Cc1ccccc1SCC(=O)NS(=O)(=O)c1ccc2c(c1)OCCO2	-2.197%	-5.876%	1.786%	0%
COC(C)c1cccc(NCc2ccsc2)c1 (stereo not given)	5.206%	-25.87%	17.14%	3.017%
Cc1cc(C)cc(Nc2nc(C)cc(=O)n2CC(=O)NC(C)C)c1	-0.6958%	-15.45%	21.74%	7.861%
CC(C)(C)S(=O)(=O)CCNC1CSCCc2ccccc21 (stereo not given)	0.6791%	19.14%	0%	-4.537%
CC(CNC(=O)NCc1ccco1)N1CCc2sccc2C1 (stereo not given)	-1.364%	-36.2%	8.929%	-6.111%
O=S(=O)(c1ccccc1)N1C[C@@H]2CCN[C@@H]2C1	-4.931%	-2.389%	3.883%	0.09177%

Once more, the final 7:

| compound | A | B | C | D |
|---|---|---|---|---|
| `CN1CCCCC1c1ncc2c(n1)CCN(Cc1ccc(F)cc1)C2` (stereo not given) | - | 10.5% | 44% | 1.331% |
| `Cc1ccccc1SCC(=O)NS(=O)(=O)c1ccc2c(c1)OCCO2` | -2.197% | -5.876% | 1.786% | 0% |
| `COC(C)c1cccc(NCc2ccsc2)c1` (stereo not given) | 5.206% | -25.87% | 17.14% | 3.017% |
| `Cc1cc(C)cc(Nc2nc(C)cc(=O)n2CC(=O)NC(C)C)c1` | -0.6958% | -15.45% | 21.74% | 7.861% |
| `CC(C)(C)S(=O)(=O)CCNC1CSCCc2ccccc21` (stereo not given) | 0.6791% | 19.14% | 0% | -4.537% |
| `CC(CNC(=O)NCc1ccco1)N1CCc2sccc2C1` (stereo not given) | -1.364% | -36.2% | 8.929% | -6.111% |
| `O=S(=O)(c1ccccc1)N1C[C@@H]2CCN[C@@H]2C1` | -4.931% | -2.389% | 3.883% | 0.09177% |